Laboratory results: PubChem BioAssay (EPA / NIEHS)
Inconclusive results, whose numbers are uncertain, are shown with a selection of clear calls. For part of these data: Potencies beside an inconclusive call are fits to weak or partial responses and may not hold up. Activity calls are given as the source filed them. The calls were made as follows: active = hit-call score of the fitted dose curve at least 0.9, where 1 is the maximum; inconclusive = response in the unintended direction; inactive = score below 0.9.

Protein sequences, listed by entry. Tags and fused reporters are not part of them. Lines headed by an entry give the natural chain unless they say otherwise; changes in a name come on top.
UniProt P42574: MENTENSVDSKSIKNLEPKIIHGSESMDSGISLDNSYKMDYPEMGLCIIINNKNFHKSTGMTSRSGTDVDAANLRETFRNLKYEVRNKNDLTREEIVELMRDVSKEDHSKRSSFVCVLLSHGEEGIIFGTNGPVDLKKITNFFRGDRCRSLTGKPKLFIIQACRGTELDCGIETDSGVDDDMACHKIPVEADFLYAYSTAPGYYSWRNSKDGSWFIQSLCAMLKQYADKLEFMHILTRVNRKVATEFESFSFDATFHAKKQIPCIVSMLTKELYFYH
UniProt P47898, whole entry, looked up: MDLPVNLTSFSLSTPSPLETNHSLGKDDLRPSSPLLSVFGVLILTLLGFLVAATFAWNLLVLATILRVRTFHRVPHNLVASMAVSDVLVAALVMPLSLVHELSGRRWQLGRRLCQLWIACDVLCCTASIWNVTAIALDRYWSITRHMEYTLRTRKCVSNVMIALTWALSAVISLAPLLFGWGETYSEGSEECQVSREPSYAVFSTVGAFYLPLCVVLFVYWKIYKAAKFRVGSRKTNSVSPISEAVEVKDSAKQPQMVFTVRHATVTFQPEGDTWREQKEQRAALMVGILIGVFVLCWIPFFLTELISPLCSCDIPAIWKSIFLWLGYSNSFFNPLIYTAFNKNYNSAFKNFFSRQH
UniProt Q9UNQ0: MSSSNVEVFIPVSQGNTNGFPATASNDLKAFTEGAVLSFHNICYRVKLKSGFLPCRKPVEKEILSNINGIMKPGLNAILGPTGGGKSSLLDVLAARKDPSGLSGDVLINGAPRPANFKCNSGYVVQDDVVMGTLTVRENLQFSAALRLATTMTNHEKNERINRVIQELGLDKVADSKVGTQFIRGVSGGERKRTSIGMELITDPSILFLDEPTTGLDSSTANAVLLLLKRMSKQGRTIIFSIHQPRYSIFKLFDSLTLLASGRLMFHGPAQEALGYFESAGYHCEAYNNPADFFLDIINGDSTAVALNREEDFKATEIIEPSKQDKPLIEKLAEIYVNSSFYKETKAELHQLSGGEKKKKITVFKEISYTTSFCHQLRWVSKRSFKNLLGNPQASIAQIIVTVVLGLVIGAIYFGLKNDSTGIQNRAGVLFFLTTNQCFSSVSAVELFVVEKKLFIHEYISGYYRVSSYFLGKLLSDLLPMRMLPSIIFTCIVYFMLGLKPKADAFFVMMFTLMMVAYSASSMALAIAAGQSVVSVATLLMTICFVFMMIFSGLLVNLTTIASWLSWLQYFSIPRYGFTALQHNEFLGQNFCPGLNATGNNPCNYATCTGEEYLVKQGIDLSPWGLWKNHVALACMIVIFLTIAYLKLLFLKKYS
UniProt P31652, whole entry, looked up: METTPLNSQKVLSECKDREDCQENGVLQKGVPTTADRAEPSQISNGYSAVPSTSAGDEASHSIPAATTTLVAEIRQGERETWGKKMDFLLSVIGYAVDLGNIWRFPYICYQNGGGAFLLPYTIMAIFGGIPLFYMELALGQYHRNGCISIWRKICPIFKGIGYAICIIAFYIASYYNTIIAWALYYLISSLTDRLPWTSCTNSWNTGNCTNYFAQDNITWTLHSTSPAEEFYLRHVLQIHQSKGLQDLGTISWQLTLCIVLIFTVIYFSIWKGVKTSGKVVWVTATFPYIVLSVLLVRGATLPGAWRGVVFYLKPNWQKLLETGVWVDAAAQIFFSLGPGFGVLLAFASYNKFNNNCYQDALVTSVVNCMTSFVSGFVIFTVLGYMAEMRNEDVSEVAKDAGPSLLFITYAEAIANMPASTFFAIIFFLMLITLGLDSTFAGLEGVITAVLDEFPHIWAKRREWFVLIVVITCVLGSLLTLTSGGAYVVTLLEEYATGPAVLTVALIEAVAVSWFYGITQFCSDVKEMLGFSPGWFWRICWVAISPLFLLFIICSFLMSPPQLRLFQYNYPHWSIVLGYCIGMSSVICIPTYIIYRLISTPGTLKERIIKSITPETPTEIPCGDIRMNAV
UniProt P20813: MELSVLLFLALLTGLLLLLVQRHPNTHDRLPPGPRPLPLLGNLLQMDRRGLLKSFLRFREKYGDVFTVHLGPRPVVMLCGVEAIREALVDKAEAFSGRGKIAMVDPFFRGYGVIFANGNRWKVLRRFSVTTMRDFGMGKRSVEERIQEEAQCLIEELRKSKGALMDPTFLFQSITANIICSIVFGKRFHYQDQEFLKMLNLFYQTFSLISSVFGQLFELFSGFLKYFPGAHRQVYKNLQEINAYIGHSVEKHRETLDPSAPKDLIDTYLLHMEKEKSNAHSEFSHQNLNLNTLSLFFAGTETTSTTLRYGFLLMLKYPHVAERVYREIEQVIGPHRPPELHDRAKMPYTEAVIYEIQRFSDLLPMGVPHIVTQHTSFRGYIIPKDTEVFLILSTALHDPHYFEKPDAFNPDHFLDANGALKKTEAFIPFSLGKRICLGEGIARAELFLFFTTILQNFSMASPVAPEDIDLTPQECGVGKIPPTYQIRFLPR
UniProt P79208, whole entry, looked up: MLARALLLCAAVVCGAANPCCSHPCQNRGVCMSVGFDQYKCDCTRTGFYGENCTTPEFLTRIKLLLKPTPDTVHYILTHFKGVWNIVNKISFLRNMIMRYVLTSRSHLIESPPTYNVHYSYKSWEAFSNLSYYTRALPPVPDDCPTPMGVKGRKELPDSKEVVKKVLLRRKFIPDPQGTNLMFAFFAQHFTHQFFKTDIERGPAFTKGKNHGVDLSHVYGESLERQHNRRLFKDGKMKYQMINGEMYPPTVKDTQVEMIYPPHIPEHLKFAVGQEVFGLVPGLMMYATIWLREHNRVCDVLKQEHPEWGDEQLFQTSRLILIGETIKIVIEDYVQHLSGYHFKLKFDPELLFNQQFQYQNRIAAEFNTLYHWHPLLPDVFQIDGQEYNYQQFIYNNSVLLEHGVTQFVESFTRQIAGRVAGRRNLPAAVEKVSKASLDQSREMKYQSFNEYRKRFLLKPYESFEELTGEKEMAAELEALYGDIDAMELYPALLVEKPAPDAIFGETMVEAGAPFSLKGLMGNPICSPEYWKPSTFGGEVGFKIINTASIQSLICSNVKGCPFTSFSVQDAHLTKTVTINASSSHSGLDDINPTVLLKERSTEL
UniProt P21452, whole entry, looked up: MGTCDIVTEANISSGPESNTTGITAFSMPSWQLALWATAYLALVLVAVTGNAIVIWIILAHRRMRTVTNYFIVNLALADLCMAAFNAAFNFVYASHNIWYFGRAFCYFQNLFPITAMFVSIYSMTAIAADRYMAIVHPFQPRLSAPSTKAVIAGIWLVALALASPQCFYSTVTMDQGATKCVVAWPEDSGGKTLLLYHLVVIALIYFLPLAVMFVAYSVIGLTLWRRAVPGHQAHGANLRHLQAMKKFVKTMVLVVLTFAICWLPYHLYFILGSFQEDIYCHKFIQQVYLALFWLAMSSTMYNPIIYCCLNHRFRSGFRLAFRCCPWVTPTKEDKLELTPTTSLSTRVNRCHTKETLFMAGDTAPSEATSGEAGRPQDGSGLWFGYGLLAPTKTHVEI
UniProt P19643, whole entry, looked up: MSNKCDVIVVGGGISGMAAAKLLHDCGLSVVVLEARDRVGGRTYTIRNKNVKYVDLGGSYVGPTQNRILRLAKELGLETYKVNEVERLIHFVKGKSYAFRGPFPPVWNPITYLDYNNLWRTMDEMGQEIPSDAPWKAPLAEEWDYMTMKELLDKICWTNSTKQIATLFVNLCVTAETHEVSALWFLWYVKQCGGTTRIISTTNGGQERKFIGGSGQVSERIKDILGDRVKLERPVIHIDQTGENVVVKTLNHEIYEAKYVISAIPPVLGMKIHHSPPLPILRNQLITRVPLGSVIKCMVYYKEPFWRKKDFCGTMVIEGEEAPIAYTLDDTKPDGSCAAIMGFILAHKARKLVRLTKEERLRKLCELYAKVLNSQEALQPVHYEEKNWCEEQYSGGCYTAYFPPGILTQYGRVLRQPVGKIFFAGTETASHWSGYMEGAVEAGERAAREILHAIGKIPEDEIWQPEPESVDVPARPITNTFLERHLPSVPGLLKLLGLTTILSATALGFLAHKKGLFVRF
UniProt Q13464: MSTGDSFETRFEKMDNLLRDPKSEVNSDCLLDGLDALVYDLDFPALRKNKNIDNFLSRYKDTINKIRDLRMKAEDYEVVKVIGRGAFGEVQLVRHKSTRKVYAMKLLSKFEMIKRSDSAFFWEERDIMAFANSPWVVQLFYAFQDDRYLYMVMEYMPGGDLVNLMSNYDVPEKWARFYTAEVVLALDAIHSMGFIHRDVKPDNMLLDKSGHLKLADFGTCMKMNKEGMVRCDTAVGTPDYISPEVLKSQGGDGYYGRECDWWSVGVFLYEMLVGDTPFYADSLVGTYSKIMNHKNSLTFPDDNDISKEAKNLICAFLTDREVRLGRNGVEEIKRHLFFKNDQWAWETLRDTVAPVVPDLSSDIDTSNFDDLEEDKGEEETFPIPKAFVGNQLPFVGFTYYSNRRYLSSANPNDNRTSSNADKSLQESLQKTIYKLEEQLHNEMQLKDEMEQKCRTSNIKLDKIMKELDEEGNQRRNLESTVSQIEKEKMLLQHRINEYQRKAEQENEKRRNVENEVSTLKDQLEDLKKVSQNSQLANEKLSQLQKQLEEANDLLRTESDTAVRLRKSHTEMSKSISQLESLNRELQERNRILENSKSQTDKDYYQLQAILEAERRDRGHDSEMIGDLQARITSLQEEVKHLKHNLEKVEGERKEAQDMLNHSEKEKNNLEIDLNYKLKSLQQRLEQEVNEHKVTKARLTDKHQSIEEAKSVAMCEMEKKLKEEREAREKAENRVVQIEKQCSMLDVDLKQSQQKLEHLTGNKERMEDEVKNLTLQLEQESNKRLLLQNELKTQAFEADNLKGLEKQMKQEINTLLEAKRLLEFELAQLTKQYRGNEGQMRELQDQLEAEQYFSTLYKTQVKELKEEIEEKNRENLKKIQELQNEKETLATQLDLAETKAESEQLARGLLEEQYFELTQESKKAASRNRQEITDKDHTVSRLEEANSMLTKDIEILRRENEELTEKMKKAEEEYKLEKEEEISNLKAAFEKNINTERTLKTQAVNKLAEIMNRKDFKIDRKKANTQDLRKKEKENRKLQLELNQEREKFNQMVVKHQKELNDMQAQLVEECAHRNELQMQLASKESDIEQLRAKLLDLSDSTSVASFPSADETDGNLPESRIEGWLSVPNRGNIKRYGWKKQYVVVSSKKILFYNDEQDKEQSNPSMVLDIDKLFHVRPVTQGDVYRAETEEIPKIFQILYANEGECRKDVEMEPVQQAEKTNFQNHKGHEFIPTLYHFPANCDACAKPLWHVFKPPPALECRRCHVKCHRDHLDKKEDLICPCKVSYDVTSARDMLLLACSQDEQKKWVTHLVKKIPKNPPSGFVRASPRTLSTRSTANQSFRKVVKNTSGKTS
UniProt P24530: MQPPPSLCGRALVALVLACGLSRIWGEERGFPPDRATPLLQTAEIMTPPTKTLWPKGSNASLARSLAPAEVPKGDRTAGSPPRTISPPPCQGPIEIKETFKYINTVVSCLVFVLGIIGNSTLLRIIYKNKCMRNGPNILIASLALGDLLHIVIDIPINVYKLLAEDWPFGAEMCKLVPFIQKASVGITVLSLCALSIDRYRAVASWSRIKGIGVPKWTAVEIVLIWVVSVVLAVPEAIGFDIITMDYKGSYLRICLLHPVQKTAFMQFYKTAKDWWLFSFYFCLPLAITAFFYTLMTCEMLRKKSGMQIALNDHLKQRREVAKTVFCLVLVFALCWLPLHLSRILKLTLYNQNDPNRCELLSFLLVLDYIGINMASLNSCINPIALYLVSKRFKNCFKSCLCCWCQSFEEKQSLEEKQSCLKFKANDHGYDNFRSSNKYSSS
UniProt P06212, whole entry, looked up: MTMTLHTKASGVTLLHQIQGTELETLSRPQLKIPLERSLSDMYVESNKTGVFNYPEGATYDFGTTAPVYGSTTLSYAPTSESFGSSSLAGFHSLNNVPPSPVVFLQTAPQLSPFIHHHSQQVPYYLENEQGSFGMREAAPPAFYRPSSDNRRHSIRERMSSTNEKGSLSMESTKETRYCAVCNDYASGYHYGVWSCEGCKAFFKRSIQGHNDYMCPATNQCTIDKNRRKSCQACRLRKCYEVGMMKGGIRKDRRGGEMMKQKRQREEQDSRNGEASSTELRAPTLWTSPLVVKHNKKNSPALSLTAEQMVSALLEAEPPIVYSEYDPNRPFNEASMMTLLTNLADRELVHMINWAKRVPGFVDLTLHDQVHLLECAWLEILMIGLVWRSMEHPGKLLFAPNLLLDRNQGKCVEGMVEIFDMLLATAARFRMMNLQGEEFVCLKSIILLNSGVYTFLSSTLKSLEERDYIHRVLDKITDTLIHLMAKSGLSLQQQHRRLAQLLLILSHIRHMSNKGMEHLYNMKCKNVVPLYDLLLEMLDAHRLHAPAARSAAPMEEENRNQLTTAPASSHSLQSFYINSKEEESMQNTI

Tests used:
Caspase-3 (Homo sapiens) = Caspase-3 (Homo sapiens) (UniProt P42574); test: NVS_ENZ_hCASP3: NovaScreen (NVS) Enzymatic Assay for human Caspase 3 (CASP3) (AID 2283139)
In short: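 Single-concentration screening at 25 uM in duplicate, with concentration-response follow-up to a 50 uM maximum for chemicals passing the threshold. Caspase-3 (human, E. coli-expressed) activity was read as substrate fluorescence after 1 h, with loss of signal relative to DMSO.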

[1] = biological target: human Serotonin, 5-Hydroxytryptamine Receptor 5A (5HT5A), HTR5A (gene 3361) (UniProt P47898); test: NVS_GPCR_h5HT5A: NovaScreen (NVS) G Protein-Coupled Receptor Assay for human Serotonin, 5-Hydroxytryptamine Receptor 5A (5HT5A) (AID 2283251)
In short: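 Membranes from HEK293 cells, radioligand binding read by filtration and scintillation after 1 h. Single-concentration duplicate testing at 25 uM, then concentration-response for actives; positive-direction fitting relative to DMSO.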

[2] = read-out: Broad substrate specificity ATP-binding cassette transporter ABCG2 (Homo sapiens) (UniProt Q9UNQ0); test: CLD_ABCG2_24hr: CellzDirect (CLD) Gene Expression Assay for ABC Transporter (ABCG2) at 24 hours (AID 2283685);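 as to AC50: AC50 is for induction meaning signal gain over DMSO vehicle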
In short: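 ABCG2 mRNA induction, read as gain of chemiluminescent signal over 0.2% DMSO, was measured by quantitative nuclease protection at 24 h. Cultured human liver hepatocytes were given fresh dosing solutions of test chemicals at several concentrations each day.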

[3] = biological target: Sodium channel protein type 1 subunit alpha (Rattus norvegicus) (UniProt P04774); test: NVS_IC_rNaCh_site2: NovaScreen (NVS) Ion Channel Assay for rat Sodium Channel, Site 2 (NaCh) (AID 2283322);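 also: hit means loss of radioligand binding signal relative to DMSO so AC50 marks displacement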
In short: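 Initial duplicate single-point testing at 25 uM, followed by concentration-response runs for actives. Binding of radioligand to rat forebrain membranes quantified after 1 h via filter-based radiodetection.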

[4] = read-out: ABC Transporter (ABCB1), ABCB1 (gene 5243); test: CLD_ABCB1_24hr: CellzDirect (CLD) Gene Expression Assay for ABC Transporter (ABCB1) at 24 hours (AID 2283684);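 also: potency for increase in ABCB1 mRNA relative to DMSO vehicle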
In short: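 ABCB1 mRNA induction versus 0.2% DMSO vehicle was read by qNPA chemiluminescence at 24 h. Cultured human hepatocytes from two donor preparations received daily fresh dosing, and phase-contrast cytotoxicity calls were annotated alongside the data.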

[5] = biological target: rat Serotonin Transporter (SERT), Slc6a4 (gene 25553) (UniProt P31652); test: NVS_TR_rSERT: NovaScreen (NVS) Transporter Assay for rat Serotonin Transporter (SERT) (AID 2283375)
In short: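 Radioligand displacement, filter scintillation readout; rat forebrain membrane prep, 1 h post-dose. Single-conc 25 uM duplicate screen, then concentration-response on actives. Loss of signal vs DMSO baseline.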

[6] = TOX21_PR_LUC_Followup_Agonist_viability: Viability Assessment in the Tox21 HEK293 Progesterone Receptor (PR) Agonism Luciferase Follow-Up Assay (AID 2283941);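 also: loss of signal means cytotoxicity so actives lower viability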
In short: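 Cytotoxicity counter-screen: ATP content by CellTiter-Glo luminescence, loss of signal = reduced viability. HEK293-PR-A-luc, 3,000 cells/well, compound exposure 16 h, 37C.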

[7] = tested on: rat Adrenergic, Alpha 1B Receptor (Adra1B), gene 24173; test: NVS_GPCR_rAdra1B: NovaScreen (NVS) G Protein-Coupled Receptor Assay for rat Adrenergic, Alpha 1B Receptor (Adra1B) (AID 2283297)
In short: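 Filter-binding radioligand competition on membranes from rat liver, read after 1 h by scintillation counting. Single-concentration duplicate screen at 25 uM, followed by concentration-response on actives, normalised to DMSO.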

[8] = read-out: Cytochrome P450 2B6 (Homo sapiens) (UniProt P20813); test: CLD_CYP2B6_24hr: CellzDirect (CLD) Gene Expression Assay for xenobiotic metabolism (CYP2B6) at 24 hours (AID 2283686)
In short: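 qNPA chemiluminescent measurement of mRNA at 24 hours in human primary hepatocyte cultures from two donor preparations, with daily fresh dosing and 0.2% DMSO vehicle as baseline. Morphology-based cytotoxicity flagged yes/no.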

[9] = biological target: rat Glycine Receptor, Strychnine-sensitive (GlyRStrySens), Glra1 (gene 25674) (UniProt P07727); test: NVS_LGIC_rGlyRStrySens: NovaScreen (NVS) Ligand-Gated Ion Channel Assay for rat Glycine Receptor, Strychnine-sensitive (GlyRStrySens) (AID 2283341)
In short: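 Radioligand displacement on rat spinal cord membranes, 1 hr, filter scintillation read-out. Single-concentration duplicate screen at 25 uM; chemicals meeting threshold (e.g., 30% inhibition) rerun in concentration-response up to 50 uM. Loss of binding fitted versus DMSO.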

[10] = tested on: guinea pig Atrionatriuretic Peptide Receptor A (ANPA), gene 100135578; test: NVS_GPCR_gANPA: NovaScreen (NVS) G Protein-Coupled Receptor Assay for guinea pig Atrionatriuretic Peptide Receptor A (ANPA) (AID 2283291)
In short: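 Displacement of specific radioligand from guinea pig cerebellum membranes was read by scintillation after 1 h. A duplicate single-point screen at 25 uM was followed by a concentration series up to 50 uM, analysed relative to DMSO.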

[11] = tested on: frog Estrogen Receptor (ER2), gene 100174814; test: ATG_frER2_XSP2: Attagene TRANS-FACTORIAL Multi-Species (XSP2) HepG2 Assay for frog Estrogen Receptor (ER2) (AID 2283828)
In short: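 Cells were transfected with reporter constructs under GAL4-UAS control, dosed with chemicals for 24 h, then lysed for RNA; the frog ER2-driven reporter mRNA was quantified by capillary electrophoresis of labeled PCR fragments, with activity fitted upward from DMSO.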

[12] = biological target: sheep Cyclooxygenase-2 (Cox2), PTGS2 (gene 443460) (UniProt P79208); test: NVS_ENZ_oCOX2: NovaScreen (NVS) Enzymatic Assay for sheep Cyclooxygenase-2 (Cox2) (AID 2283231)
In short: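 Colorimetric absorbance read-out of COX activity, taken 0.66 hour post-dosing, using native protein from sheep placenta. Single-concentration duplicate screen (25 uM), then singleton concentration-response up to 50 uM for actives.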

[13] = biological target: human Neurokinin, NK2 Receptor, TACR2 (gene 6865) (UniProt P21452); test: NVS_GPCR_hNK2: NovaScreen (NVS) G Protein-Coupled Receptor Assay for human Neurokinin, NK2 Receptor (AID 2283278);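 also: actives reduce bound radioligand signal relative to DMSO baseline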
In short: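 CHO-derived membrane protein, radioligand displacement, filter scintillation read at 4 h post-dose. Single-point 25 uM in duplicate, then concentration series for actives; DMSO as negative control.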

[14] = biological target: rat Monoamine Oxidase, MAO-B, Central (MAOBC), Maob (gene 25750) (UniProt P19643); test: NVS_ENZ_rMAOBC: NovaScreen (NVS) Enzymatic Assay for rat Monoamine Oxidase, MAO-B, Central (MAOBC) (AID 2283238)
In short: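 Cell-free radiometric assay, rat brain lysate. Read-out: scintillation counts, 1.17 h post-dosing. Screen 25 uM in duplicate; actives (e.g. ≥30% inhibition) then singleton concentration-response, max 50 uM. Activity loss fitted relative to DMSO.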

[15] = biological target: human Rho Associated Coiled-coil Containing Protein Kinase 1 (ROCK1), ROCK1 (gene 6093) (UniProt Q13464); test: NVS_ENZ_hROCK1: NovaScreen (NVS) Enzymatic Assay for human Rho Associated Coiled-coil Containing Protein Kinase 1 (ROCK1) (AID 2283214)
In short: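 Compounds first run in duplicate at 25 uM against recombinant human ROCK1, then followed in concentration series. Kinase activity was read 1 h post-dosing by fluorescence with mobility-shift separation, as signal loss relative to DMSO.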

[16] = TAMU_PeakParms_SingleDonor1434_Asystole: Texas A&M University (TAMU) 1.5-hr Human Induced Pluripotent Stem Cell (iPSC)-derived Cardiomyocytes Calcium (Ca+2) Flux Assay for Cardiotoxicity: Asystole (quiescence of beating) (AID 2284328)
In short: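 Donor 1434 iPSC-cardiomyocytes exposed 90 min at 37C, 5% CO2, to 0.2, 1, 10 and 100 uM in 0.5% DMSO. Ca2+ dye fluorescence gave average peak frequency; POD is EC95, a 95% beat-rate drop versus controls.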

[17] = biological target: human Endothelin Receptor Type B (ETB), EDNRB (gene 1910) (UniProt P24530); test: NVS_GPCR_hETB: NovaScreen (NVS) G Protein-Coupled Receptor Assay for human Endothelin Receptor Type B (ETB) (AID 2283267)
In short: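 Filter-based scintillation readout of radioligand displacement, 4 h, using membranes from human astrocytoma cells. Actives from a 25 uM duplicate screen were retested in concentration-response (top 50 uM) relative to DMSO baseline.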

[18] = tested on: turtle Estrogen Receptor (ERa), gene 101933533; test: ATG_trERa_XSP2: Attagene TRANS-FACTORIAL Multi-Species (XSP2) HepG2 Assay for turtle Estrogen Receptor (ERa) (AID 2283812);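 also: actives raise reporter signal above DMSO so AC50 reflects agonist activity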
In short: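 Readout is reporter mRNA quantified by RT-PCR with capillary electrophoresis after 24 h compound exposure, increase relative to DMSO. Uses transiently transfected human HepG2 liver cells carrying a chimeric turtle ERa-Gal4 receptor driving GAL4-UAS reporters.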

[19] = biological target: chicken Estrogen Receptor (ERa), ESR1 (gene 396099) (UniProt P06212); test: ATG_chERa_XSP2: Attagene TRANS-FACTORIAL Multi-Species (XSP2) HepG2 Assay for chicken Estrogen Receptor (ERa) (AID 2283817);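 also: actives raise reporter signal above DMSO so AC50 reflects ER activation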
In short: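 Readout: fluorescent reporter-transcript fragments resolved by capillary electrophoresis after RT-PCR and HpaI cut. Chicken ERa-Gal4 fusion in transiently transfected HepG2, dosed for 24 h; activity taken as increase over DMSO baseline.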

Which AC50 (Caspase-3 (Homo sapiens)) does the source give for `N#CC(Br)(Br)C(N)=O` here?
The AC50 was inconclusive: 25 µM.

With `CC(=NC#N)N(C)Cc1ccc(Cl)nc1` as the compound, how does the AC50 [1] read?
Its AC50 is inconclusive: 25 µM.

And the outcome [2]?
The outcome was “inactive”.

Which AC50 [3] does the source give for `CC(C)N(C(=O)SCC(Cl)=C(Cl)Cl)C(C)C` here?
Its AC50 is inconclusive: 0.0855 µM.

What about the AC50 [4] of the same compound?
Its AC50 is active: 35.3 µM.

For `CC(C)Nc1nc(Cl)nc(NC(C)C)n1`, which AC50 [3] is on record?
The AC50 was inconclusive: 25 µM.

And the AC50 [2]?
Its AC50 is inconclusive: 20 µM.

What does the source list for `CCOP(=S)(OCC)Oc1ccc([N+](=O)[O-])cc1`?
AC50 [5]: active: 8.93 µM; AC50 [6]: inconclusive: 23 µM

With `Fc1ccc(Oc2ccnc3cc(Cl)cc(Cl)c23)cc1` as the compound, how does the outcome [1] read?
Its outcome is “inactive”.

And the outcome [7]?
Its outcome is “inactive”.

And the outcome [8]?
Its outcome is “inactive”.

For `O=C(O)COc1ccc(Cl)cc1Cl`, which AC50 [9] is on record?
The AC50 was inconclusive: 25 µM.

What does the source list for `CCOP(=S)(OCC)Oc1ccc2c(C)c(Cl)c(=O)oc2c1`?
outcome [10]: inactive; AC50 [11]: inconclusive: 1.37 µM

For `COc1cc(OC)nc(Oc2cccc(Oc3nc(OC)cc(OC)n3)c2C(=O)O)n1`, which AC50 [12] is on record?
Its AC50 is inconclusive: 25 µM.

Which AC50 [13] does the source give for `CCOC(=O)[C@]1(c2ccccc2)Oc2ccccc2[C@@H]1N` here?
The AC50 was inconclusive: 8.17 µM.

What about the AC50 [9] of the same compound?
Its AC50 is active: 25 µM.

For `CCOC(=O)CC(SP(=O)(OC)OC)C(=O)OCC` (centres undefined), which AC50 [14] is on record?
Its AC50 is inconclusive: 25 µM.

Which outcome [15] does the source give for `CCOP(=S)(OCC)Oc1nc(Cl)n(C(C)C)n1` here?
The outcome was “inactive”.

With `O=C1C=CC(=O)C=C1` as the compound, how does the AC50 [16] read?
Its AC50 is inconclusive: 50 µM.

For `C[C@@H]1C[C@@H]([C@H](O)CC2CC(=O)NC(=O)C2)C(=O)[C@@H](C)C1`, which AC50 [13] is on record?
The AC50 was inconclusive: 41.1 µM.

Which outcome [17] does the source give for `N#CC(Br)Br` here?
Its outcome is “inactive”.

With `N#Cc1ccc(N(CC(N)=O)CC(F)(F)F)cc1C(F)(F)F` as the compound, how does the AC50 [12] read?
Its AC50 is active: 6.58 µM.

Which outcome [15] does the source give for `CCOc1ccc(C(C)(C)COCc2cccc(Oc3ccccc3)c2)cc1` here?
Its outcome is “inactive”.

With `CCC(=O)Nc1ccc(Cl)c(Cl)c1` as the compound, how does the AC50 [14] read?
Its AC50 is active: 13 µM.

And the AC50 [4]?
Its AC50 is inconclusive: 4.09 µM.

What about the AC50 [18] of the same compound?
Its AC50 is inconclusive: 100 µM.

And the outcome [18]?
The outcome was “inactive”.

And the AC50 [19]?
Its AC50 is inconclusive: 100 µM.

And the outcome [19]?
The outcome was “inactive”.

What about the AC50 [11] of the same compound?
Its AC50 is inconclusive: 100 µM.

Which outcome [6] does the source give for `Nc1ccc(-c2ccc(N)c(Cl)c2)cc1Cl` here?
The outcome was “inactive”.

For `CC1CCCC1.[C-]#[O+].[C-]#[O+].[C-]#[O+].[Mn]`, which AC50 [16] is on record?
Its AC50 is inconclusive: 50 µM.

With `Cc1cc(C)cc(C)c1` as the compound, how does the AC50 [5] read?
Its AC50 is inconclusive: 26 µM.

With `Oc1ccccc1Cl` as the compound, how does the AC50 [10] read?
Its AC50 is inconclusive: 25 µM.

With `O=C(O)C(F)(F)C(F)(F)C(F)(F)C(F)(F)C(F)(F)C(F)(F)C(F)(F)F` as the compound, how does the AC50 [17] read?
The AC50 was inconclusive: 25 µM.

And the AC50 [7]?
The AC50 was inconclusive: 25 µM.

And the outcome [8]?
The outcome was “inactive”.
